# From article PMC9985596
# Protein sequences, listed by entry. Tags and fused reporters are not part of them.
# UniProt P53396: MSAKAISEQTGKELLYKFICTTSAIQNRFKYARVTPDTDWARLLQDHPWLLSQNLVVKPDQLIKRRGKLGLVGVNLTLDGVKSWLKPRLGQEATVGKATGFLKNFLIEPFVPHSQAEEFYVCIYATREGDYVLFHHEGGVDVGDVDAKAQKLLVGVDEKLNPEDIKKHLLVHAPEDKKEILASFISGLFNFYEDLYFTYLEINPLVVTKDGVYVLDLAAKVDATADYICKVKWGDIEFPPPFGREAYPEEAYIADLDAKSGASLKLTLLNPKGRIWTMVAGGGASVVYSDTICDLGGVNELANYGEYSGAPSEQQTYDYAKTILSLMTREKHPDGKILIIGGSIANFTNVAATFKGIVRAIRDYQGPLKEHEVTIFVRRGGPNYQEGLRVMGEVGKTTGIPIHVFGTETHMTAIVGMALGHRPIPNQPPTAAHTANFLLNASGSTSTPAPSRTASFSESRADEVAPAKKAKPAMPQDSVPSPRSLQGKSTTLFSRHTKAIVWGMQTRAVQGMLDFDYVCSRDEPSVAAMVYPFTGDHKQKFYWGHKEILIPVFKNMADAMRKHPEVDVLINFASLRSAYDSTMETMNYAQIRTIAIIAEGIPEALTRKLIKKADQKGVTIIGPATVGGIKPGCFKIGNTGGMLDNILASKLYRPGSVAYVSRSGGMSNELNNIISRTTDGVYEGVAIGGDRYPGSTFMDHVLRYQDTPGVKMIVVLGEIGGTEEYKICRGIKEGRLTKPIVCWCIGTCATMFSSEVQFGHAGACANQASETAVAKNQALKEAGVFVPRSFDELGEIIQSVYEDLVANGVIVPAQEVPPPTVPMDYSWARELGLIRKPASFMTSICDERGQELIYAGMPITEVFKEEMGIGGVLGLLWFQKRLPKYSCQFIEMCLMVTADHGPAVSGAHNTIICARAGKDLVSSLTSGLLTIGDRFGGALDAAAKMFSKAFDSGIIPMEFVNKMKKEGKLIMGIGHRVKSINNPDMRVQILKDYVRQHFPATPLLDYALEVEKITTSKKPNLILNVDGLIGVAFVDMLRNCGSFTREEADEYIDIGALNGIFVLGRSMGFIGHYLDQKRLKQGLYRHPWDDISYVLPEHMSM
# UniProt P22314: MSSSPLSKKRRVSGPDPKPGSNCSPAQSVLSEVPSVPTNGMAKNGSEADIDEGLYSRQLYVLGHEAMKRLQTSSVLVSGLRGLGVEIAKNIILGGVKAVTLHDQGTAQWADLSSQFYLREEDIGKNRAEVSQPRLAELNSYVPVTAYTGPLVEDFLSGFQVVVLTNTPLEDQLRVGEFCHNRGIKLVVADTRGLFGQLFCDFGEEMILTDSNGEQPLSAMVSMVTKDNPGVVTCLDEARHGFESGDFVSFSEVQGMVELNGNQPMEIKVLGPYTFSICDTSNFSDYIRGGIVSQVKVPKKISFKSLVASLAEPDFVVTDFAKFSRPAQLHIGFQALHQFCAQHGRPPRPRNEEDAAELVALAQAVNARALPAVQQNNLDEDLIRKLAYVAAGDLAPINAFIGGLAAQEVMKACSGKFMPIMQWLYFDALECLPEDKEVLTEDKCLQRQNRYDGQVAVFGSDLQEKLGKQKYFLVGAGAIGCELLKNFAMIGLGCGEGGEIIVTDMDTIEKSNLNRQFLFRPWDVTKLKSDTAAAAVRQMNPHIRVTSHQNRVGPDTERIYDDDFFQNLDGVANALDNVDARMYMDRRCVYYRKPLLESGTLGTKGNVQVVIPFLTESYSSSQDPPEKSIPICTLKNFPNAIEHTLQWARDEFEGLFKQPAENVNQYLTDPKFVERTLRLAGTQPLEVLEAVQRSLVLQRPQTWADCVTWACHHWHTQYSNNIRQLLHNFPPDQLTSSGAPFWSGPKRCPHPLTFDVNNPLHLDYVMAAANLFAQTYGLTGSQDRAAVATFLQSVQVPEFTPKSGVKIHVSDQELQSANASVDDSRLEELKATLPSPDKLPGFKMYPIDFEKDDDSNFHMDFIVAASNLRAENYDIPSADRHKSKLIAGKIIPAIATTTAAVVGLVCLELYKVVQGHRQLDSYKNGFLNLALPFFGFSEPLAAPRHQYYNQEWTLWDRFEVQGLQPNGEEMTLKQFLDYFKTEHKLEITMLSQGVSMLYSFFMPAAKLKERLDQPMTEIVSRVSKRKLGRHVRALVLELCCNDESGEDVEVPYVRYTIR
# UniProt O43684: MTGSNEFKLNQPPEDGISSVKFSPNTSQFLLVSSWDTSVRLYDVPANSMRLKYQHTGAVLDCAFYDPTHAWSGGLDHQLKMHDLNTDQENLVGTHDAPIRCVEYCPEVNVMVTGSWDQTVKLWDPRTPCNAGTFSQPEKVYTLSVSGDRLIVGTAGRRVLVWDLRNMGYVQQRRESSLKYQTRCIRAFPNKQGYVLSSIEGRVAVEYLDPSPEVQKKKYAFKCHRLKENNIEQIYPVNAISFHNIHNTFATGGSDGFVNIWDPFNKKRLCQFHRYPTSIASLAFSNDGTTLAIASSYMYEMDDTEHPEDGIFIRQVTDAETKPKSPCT
# Target: T1, FLAG-tagged RECQ4 wild type (human) (UniProt O94761)
# T1 sequence: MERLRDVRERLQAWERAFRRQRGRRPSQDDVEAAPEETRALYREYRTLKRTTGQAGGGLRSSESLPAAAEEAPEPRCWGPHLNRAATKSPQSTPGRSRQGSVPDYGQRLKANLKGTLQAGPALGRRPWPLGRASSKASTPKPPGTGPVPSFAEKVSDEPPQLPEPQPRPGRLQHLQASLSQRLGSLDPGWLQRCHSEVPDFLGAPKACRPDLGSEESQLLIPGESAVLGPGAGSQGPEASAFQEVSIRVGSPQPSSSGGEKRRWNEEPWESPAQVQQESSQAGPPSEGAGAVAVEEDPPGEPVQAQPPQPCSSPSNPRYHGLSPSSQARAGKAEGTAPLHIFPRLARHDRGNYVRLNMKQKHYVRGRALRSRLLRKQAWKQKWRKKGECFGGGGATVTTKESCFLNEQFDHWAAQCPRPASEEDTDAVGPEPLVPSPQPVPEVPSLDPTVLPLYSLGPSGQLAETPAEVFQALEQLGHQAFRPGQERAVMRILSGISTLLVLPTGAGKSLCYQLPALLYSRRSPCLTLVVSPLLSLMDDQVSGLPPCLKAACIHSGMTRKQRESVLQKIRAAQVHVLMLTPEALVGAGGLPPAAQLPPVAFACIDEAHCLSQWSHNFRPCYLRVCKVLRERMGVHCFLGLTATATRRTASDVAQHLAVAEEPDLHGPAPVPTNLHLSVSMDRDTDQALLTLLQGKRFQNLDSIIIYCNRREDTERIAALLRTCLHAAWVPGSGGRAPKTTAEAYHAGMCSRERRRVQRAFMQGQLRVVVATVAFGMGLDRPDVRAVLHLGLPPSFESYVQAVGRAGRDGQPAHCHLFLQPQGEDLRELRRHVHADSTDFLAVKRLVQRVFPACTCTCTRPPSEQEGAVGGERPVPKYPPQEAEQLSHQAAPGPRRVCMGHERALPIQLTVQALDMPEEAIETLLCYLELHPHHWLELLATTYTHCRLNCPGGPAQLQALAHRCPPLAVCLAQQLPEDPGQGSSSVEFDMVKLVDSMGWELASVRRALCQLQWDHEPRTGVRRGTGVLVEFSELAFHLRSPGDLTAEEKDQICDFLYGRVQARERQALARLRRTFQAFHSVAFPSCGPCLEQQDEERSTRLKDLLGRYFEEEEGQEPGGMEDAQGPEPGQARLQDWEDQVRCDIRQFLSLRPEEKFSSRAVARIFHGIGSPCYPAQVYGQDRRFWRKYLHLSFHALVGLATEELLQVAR
# Assay: affinity purification with mass spectrometry; FLAG-RECQ4 WT or Q757X immunopurified on anti-FLAG M2 agarose from benzonase-solubilised chromatin-bound (CB) fractions of stable RECQ4 KD HEK293 cells; overnight at 4 C; washes with 0.3 M NaCl, 0.2% Triton X-100; n = 1
row,binding,Substance
1,binds,ATP citrate lyase (ACLY) (from UniProt P53396 1-1101) (enzyme)
2,binds,ubiquitin-activating enzyme E1 homolog A (UBA1) (from UniProt P22314 1-1058)
3,binds,mitotic checkpoint protein BUB3 (from UniProt O43684 1-328)

# These are yes or no findings as the source states them, for the method shown. Binding seen in cells or lysates may run through a third protein. Here binding means that the protein was enriched with, or labelled near, the bait; the list need not be complete. Where a sequence is shown, tags or fusion partners need not be part of it.
